Taken from: PubChem BioAssay AID743121 (NCATS, 2013)
Screen: 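Knock-downs that sensitise breast cancer cells to camptothecin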 (primary screen). System: MDA-MB-231 cells, a human breast cancer line. Knock-down reagent: single siRNA against human genes, 20 nM siRNA (0.8 pmol per well). Timing: 120 h (drug added 48 h after transfection, read 72 h later). Treatment: camptothecin 20 nM (about EC30) for 72 h; vehicle 0.1% DMSO in parallel plates. Measurement: 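Cell viability by ATP luminescence (CellTiter-Glo) as % of non-targeting siRNA wells, and the log2 ratio of viability without drug over viability with camptothecin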. Direction: log2 vehicle/camptothecin viability: higher = stronger sensitisation to camptothecin. Hit rule: 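Active genes have an RSA gene-level p-value below 0.001, computed from the ratios of their separate siRNAs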.
Here is an unselected part of about 26,000 reagents. 167 of all reagents (0.63%) count as active. 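Calls are per gene from RSA p-values that are not deposited; an individual active-marked siRNA can sensitise only weakly.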 Entries without a mark were called inactive. Reagents against one gene are numbered here. Not all columns of the deposit are shown.

The first 2 records, to show the layout:
gene | reagent no. | log2 vehicle/camptothecin viability
GPR155 (G protein-coupled receptor 155) | 1 | -0.466
GPR155 (G protein-coupled receptor 155) | 2 | -0.165

Main list, from the first entry:
gene | reagent no. | log2 vehicle/camptothecin viability
GPR155 (G protein-coupled receptor 155) | 1 | -0.466
GPR155 (G protein-coupled receptor 155) | 2 | -0.165
GPR155 (G protein-coupled receptor 155) | 3 | 0.298
GPR155 (G protein-coupled receptor 155) | 4 | -0.0751
HSD17B13 (hydroxysteroid 17-beta dehydrogenase 13) | 1 | 0.00692
HSD17B13 (hydroxysteroid 17-beta dehydrogenase 13) | 2 | 0.133
HSD17B13 (hydroxysteroid 17-beta dehydrogenase 13) | 3 | -0.317
HSD17B13 (hydroxysteroid 17-beta dehydrogenase 13) | 4 | 0.0398
TXNDC16 (thioredoxin domain containing 16) | 1 | -0.0981
TXNDC16 (thioredoxin domain containing 16) | 2 | -0.172
TXNDC16 (thioredoxin domain containing 16) | 3 | -0.217
TXNDC16 (thioredoxin domain containing 16) | 4 | -0.126
ALAS2 (5'-aminolevulinate synthase 2) | 1 | 0.00442
ALAS2 (5'-aminolevulinate synthase 2) | 2 | 0.0746
ALAS2 (5'-aminolevulinate synthase 2) | 3 | 0.129
RABGGTB (Rab geranylgeranyltransferase subunit beta) | 1 | -0.569
RABGGTB (Rab geranylgeranyltransferase subunit beta) | 2 | -0.169
RABGGTB (Rab geranylgeranyltransferase subunit beta) | 3 | -0.525
RABGGTB (Rab geranylgeranyltransferase subunit beta) | 4 | 0.0387
SLC7A3 | 1 | -0.262
SLC7A3 | 2 | -0.345
SLC7A3 | 3 | -0.227
SLC7A3 | 4 | -0.503
LMAN1 (lectin, mannose binding 1) | 1 | -0.308
LMAN1 (lectin, mannose binding 1) | 2 | -0.475
FXYD2 (FXYD domain containing ion transport regulator 2) | 1 | -0.347
FXYD2 (FXYD domain containing ion transport regulator 2) | 2 | -0.347
FXYD2 (FXYD domain containing ion transport regulator 2) | 3 | -0.148
FXYD2 (FXYD domain containing ion transport regulator 2) | 4 | -0.264
BEX3 (brain expressed X-linked 3) | 1 | -0.171
BEX3 (brain expressed X-linked 3) | 2 | 0.251
BEX3 (brain expressed X-linked 3) | 3 | -0.247
BEX3 (brain expressed X-linked 3) | 4 | 0.0947
EPX (eosinophil peroxidase) | 1 | -0.0206
EPX (eosinophil peroxidase) | 2 | -0.18
EPX (eosinophil peroxidase) | 3 | 0.243
EPX (eosinophil peroxidase) | 4 | 1.28
SOX2-OT (SOX2 overlapping transcript) | 1 | -0.123
SOX2-OT (SOX2 overlapping transcript) | 2 | -0.0962
MYL6 (myosin light chain 6) | 1 | -0.141
MYL6 (myosin light chain 6) | 2 | -0.271
MYL6 (myosin light chain 6) | 3 | -0.102
APLN (apelin) | 1 | -0.437
APLN (apelin) | 2 | -0.152
APLN (apelin) | 3 | -0.431
APLN (apelin) | 4 | 0.0347
LIF (LIF interleukin 6 family cytokine) | 1 | 0.147
LIF (LIF interleukin 6 family cytokine) | 2 | 0.134
LIF (LIF interleukin 6 family cytokine) | 3 | -0.128
LIF (LIF interleukin 6 family cytokine) | 4 | 0.0585
SLAMF8 (SLAM family member 8) | 1 | 0.011
SLAMF8 (SLAM family member 8) | 2 | -0.273
SLAMF8 (SLAM family member 8) | 3 | 0.12
SLAMF8 (SLAM family member 8) | 4 | -0.488
APC (APC regulator of Wnt signaling pathway) | 1 | 0.0919
APC (APC regulator of Wnt signaling pathway) | 2 | -0.372
APC (APC regulator of Wnt signaling pathway) | 3 | -0.338
APC (APC regulator of Wnt signaling pathway) | 4 | -0.166
FAH (fumarylacetoacetate hydrolase) | 1 | 0.55
FAH (fumarylacetoacetate hydrolase) | 2 | 0.123
FAH (fumarylacetoacetate hydrolase) | 3 | -0.0832
FAH (fumarylacetoacetate hydrolase) | 4 | -0.501
CCL28 (C-C motif chemokine ligand 28) | 1 | -0.0102
CCL28 (C-C motif chemokine ligand 28) | 2 | -0.414
CCL28 (C-C motif chemokine ligand 28) | 3 | -0.0458
TRAF4 (TNF receptor associated factor 4) | 1 | -0.371
TRAF4 (TNF receptor associated factor 4) | 2 | 0.235
TRAF4 (TNF receptor associated factor 4) | 3 | 0.72
TRAF4 (TNF receptor associated factor 4) | 4 | 0.291
